Among the test systems are MZ2-MEL; MeWo; RPMI7951; RVH-421; SkMel28; SkMel30; SkMel5; UACC257; UACC62; WM115; WM1716; WM1745; WM3526; WM3619; WM451Lu; SkMel2.
Common to all, as to assay: cleaved PARP positive nuclei fraction relative to DMSO control; melanoma cells; higher = more apoptosis
What all share (conditions): library dose: low library concentration; 72 h

Some of the results follow. Single values are uncertain, as repeats are few or missing.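 The apoptosis fraction was the count of cleaved-PARP antibody-stained nuclei relative to all DNA-stained nuclei, imaged in 1,536-well plates. Screening doses were set so most cells survived, and baseline and induced cleaved-PARP levels vary greatly across cell lines.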

With `C[As](C)SC[C@H](NC(=O)CC[C@H](N)C(=O)O)C(=O)NCC(=O)O` [Darinaparsin] + Cc1cc(SCc2sc(-c3ccc(C(F)(F)F)c(F)c3)nc2C)ccc1OCC(=O)O [GW0742] (first compound 0.4 µM, partner dose 2 µM), the “cleaved PARP positive nuclei fraction” value with MZ2-MEL is 224%; with MeWo, 57%; with RPMI7951, 39.2%; with RVH-421, 90.3%; in the assay with SkMel28, 144%; in the assay on SkMel30, 287%. Moreover, the “cleaved PARP positive nuclei fraction” value came to 82.6% with SkMel5; 46.4% in the assay on UACC257; 143% in the assay on UACC62; 80.7% in the assay with WM115; 46.1% with WM1716; 106% in the assay on WM1745. The “cleaved PARP positive nuclei fraction” value in the assay on WM3526 came to 93.5%; with WM3619, 73.3%; in the assay with WM451Lu, 63.1%.
As for `O=C(O)c1ccc(-c2c[nH]c3ncc(-c4ccccc4)cc23)cc1C1CCCC1` + Cc1cc(SCc2sc(-c3ccc(C(F)(F)F)c(F)c3)nc2C)ccc1OCC(=O)O [GW0742] (first compound 0.16 µM, partner dose 2 µM), the “cleaved PARP positive nuclei fraction” value was 156% with MZ2-MEL; 66% with MeWo; 90.9% in the assay with RPMI7951; 74.5% in the assay with RVH-421; 355% with SkMel28; 45.9% in the assay with SkMel30. Besides, the “cleaved PARP positive nuclei fraction” value was found to be 64.3% in the assay with SkMel5; 145% in the assay on UACC257; 171% in the assay with UACC62; 95.1% in the assay with WM115; 50% with WM1716; 104% with WM1745. In addition, the results for the “cleaved PARP positive nuclei fraction” value with WM3526, in the assay with WM3619 and with WM451Lu were 121%, 87.6% and 181%, respectively.
As to `CC[C@]1(O)C[C@H]2CN(CCc3c([nH]c4ccccc34)[C@@](C(=O)OC)(c3cc4c(cc3OC)N(C=O)[C@H]3[C@@](O)(C(=O)OC)[C@H](OC(C)=O)[C@]5(CC)C=CCN6CC[C@]43[C@@H]65)C2)C1` [vincristine] + C[As](C)SC[C@H](NC(=O)CC[C@H](N)C(=O)O)C(=O)NCC(=O)O [Darinaparsin] (first compound 0.0001 µM, partner dose 0.4 µM), the “cleaved PARP positive nuclei fraction” value was 197% in the assay with MZ2-MEL; 322% in the assay on MeWo; 112% in the assay with RPMI7951; 187% in the assay with RVH-421; 386% with SkMel28; 141% in the assay on SkMel2. Also, the “cleaved PARP positive nuclei fraction” value with SkMel30 stood at 129%; with UACC62 it was 946%; in the assay on WM115 it was 1570%; with WM1716, 767%; in the assay on WM1745, 111%; in the assay on WM3526, 74.1%. The “cleaved PARP positive nuclei fraction” value worked out at 518% in the assay with WM3619 and 221% in the assay with WM451Lu.
As to `CO[C@H]1C[C@@H]2CC[C@@H](C)[C@@](O)(O2)C(=O)C(=O)N2CCCC[C@H]2C(=O)O[C@H]([C@H](C)C[C@@H]2CC[C@@H](OCCO)[C@H](OC)C2)CC(=O)[C@H](C)/C=C(\C)[C@@H](O)[C@@H](OC)C(=O)[C@H](C)C[C@H](C)/C=C/C=C/C=C/1C` [everolimus] + C/C(O)=C(\C#N)C(=O)Nc1cc(Br)ccc1Br [LFM-A13] (first compound 0.02 µM, partner dose 2 µM), the “cleaved PARP positive nuclei fraction” value in the assay with MZ2-MEL was determined as 188%; with MeWo, 82.2%; in the assay on RPMI7951 it was 25.9%; with RVH-421, 63.5%; in the assay on SkMel28, 528%; in the assay on SkMel30, 48.4%. Further, the “cleaved PARP positive nuclei fraction” value in the assay on SkMel5 is 194%; with UACC257, 359%; in the assay with UACC62 it was 101%; with WM115, 210%; in the assay with WM1716, 175%; in the assay on WM1745 it was 107%. For the same compound, the “cleaved PARP positive nuclei fraction” value in the assay with WM3526 was found to be 103%; in the assay on WM3619 it was 127%; in the assay on WM451Lu it was 84.6%.
Consider `N.N.[Cl][Pt][Cl]` [cisplatin] + C[C@]1(c2nc3c(C(N)=O)cccc3[nH]2)CCCN1 [Veliparib] (first compound 1.6 µM, partner dose 1.4 µM), for which the “cleaved PARP positive nuclei fraction” value in the assay with MZ2-MEL came out at 81.4%; with MeWo, 74.6%; with RPMI7951, 195%; with RVH-421, 94.5%; in the assay on SkMel28 it was 93%; in the assay on SkMel2, 120%. For the same compound, the “cleaved PARP positive nuclei fraction” value amounted to 123% in the assay on SkMel30; 74.8% in the assay on UACC62; 80% in the assay with WM115; 108% in the assay with WM1716; 99.7% with WM1745; 47.6% in the assay with WM3526. In addition, the “cleaved PARP positive nuclei fraction” value with WM3619 was determined as 113%; with WM451Lu it was 38.8%.
As for `Cn1cc(C2=C(c3cn(C4CCN(Cc5ccccn5)CC4)c4ccccc34)C(=O)NC2=O)c2ccccc21` [Enzastaurin] + Cc1cc(Nc2cc(N3CCN(C)CC3)nc(/C=C/c3ccccc3)n2)n[nH]1 [ENMD2076] (first compound 0.8 µM, partner dose 0.04 µM), the “cleaved PARP positive nuclei fraction” value in the assay on MZ2-MEL was determined as 20.6%; with MeWo it was 93.3%; with RPMI7951 it was 115%; with RVH-421, 1030%; in the assay on SkMel28, 82.9%; with SkMel2, 22.3%. In addition, the “cleaved PARP positive nuclei fraction” value was found to be 68.3% in the assay on SkMel30; 96.6% in the assay on UACC62; 76.6% in the assay with WM115; 120% in the assay with WM1716; 102% in the assay on WM1745; 113% in the assay with WM3526. In addition, the results for the “cleaved PARP positive nuclei fraction” value with WM3619 and with WM451Lu were 78.1% and 242%, respectively.
As for `C[As](C)SC[C@H](NC(=O)CC[C@H](N)C(=O)O)C(=O)NCC(=O)O` [Darinaparsin] + CCCCCCCCCCCC1=C(O)C(=O)C=C(O)C1=O [Embelin] (first compound 0.4 µM, partner dose 1.2 µM), the “cleaved PARP positive nuclei fraction” value in the assay on MZ2-MEL came out at 240%; with MeWo, 70.9%; in the assay with RPMI7951, 76.2%; in the assay on RVH-421, 27.4%; in the assay with SkMel28, 161%; with SkMel30, 27.2%. The “cleaved PARP positive nuclei fraction” value in the assay with SkMel5 is 116%; with UACC257 it was 230%; with UACC62, 74.9%; in the assay with WM115, 74%; in the assay with WM1716, 50%; with WM1745, 103%. Further, the entries for the “cleaved PARP positive nuclei fraction” value in the assay with WM3526, with WM3619 and in the assay with WM451Lu were 67.4%, 82.2% and 26.4%, respectively.
As for `C[As](C)SC[C@H](NC(=O)CC[C@H](N)C(=O)O)C(=O)NCC(=O)O` [Darinaparsin] + O=C(O)C(=O)Nc1sc2c(c1C(=O)O)CCNC2 [TCS401] (first compound 0.4 µM, partner dose 1.66667 µM), the “cleaved PARP positive nuclei fraction” value is 202% in the assay on MZ2-MEL; 53.6% in the assay on MeWo; 128% in the assay on RPMI7951; 97.6% in the assay with RVH-421; 99.8% in the assay with SkMel28; 73.8% in the assay with SkMel30. The “cleaved PARP positive nuclei fraction” value stood at 35.2% in the assay with SkMel5; 68.4% with UACC257; 50.5% with UACC62; 73.5% in the assay with WM115; 41.6% in the assay on WM1716; 104% in the assay with WM1745. Also, the figures for the “cleaved PARP positive nuclei fraction” value in the assay with WM3526, in the assay with WM3619 and in the assay with WM451Lu were 102%, 204% and 44.5%, respectively.
`Cn1cc(C2=C(c3cn(C4CCN(Cc5ccccn5)CC4)c4ccccc34)C(=O)NC2=O)c2ccccc21` [Enzastaurin] + Cn1c(=O)n(-c2ccc(C(C)(C)C#N)cc2)c2c3cc(-c4cnc5ccccc5c4)ccc3ncc21 [NVP-BEZ235] (first compound 0.8 µM, partner dose 0.004 µM): the “cleaved PARP positive nuclei fraction” value with MZ2-MEL was determined as 83.4%; in the assay on MeWo, 23.3%; with RPMI7951 it was 72.3%; with RVH-421, 31.2%; in the assay with SkMel28 it was 67.2%; with SkMel2, 56.3%. Besides, the “cleaved PARP positive nuclei fraction” value stood at 120% in the assay on SkMel30; 73.8% with UACC62; 32.7% in the assay on WM115; 53.8% in the assay with WM1716; 87.4% with WM1745; 34.4% in the assay with WM3526. In addition, the entries for the “cleaved PARP positive nuclei fraction” value with WM3619 and with WM451Lu were 90% and 113%, respectively.
On to `Cn1c(Nc2ccc(C(F)(F)F)cc2)nc2cc(Oc3ccnc(-c4ncc(C(F)(F)F)[nH]4)c3)ccc21` + Cc1cc(SCc2sc(-c3ccc(C(F)(F)F)c(F)c3)nc2C)ccc1OCC(=O)O [GW0742] (first compound 0.08 µM, partner dose 2 µM), for which the “cleaved PARP positive nuclei fraction” value worked out at 350% in the assay on MZ2-MEL; 396% with MeWo; 74.6% in the assay on RPMI7951; 231% in the assay on RVH-421; 97.3% in the assay with SkMel28; 92.1% with SkMel30. The “cleaved PARP positive nuclei fraction” value in the assay with SkMel5 was found to be 3850%; in the assay with UACC257, 67.7%; with UACC62, 475%; with WM115, 1590%; with WM1716 it was 220%; in the assay with WM1745, 147%. Further, the “cleaved PARP positive nuclei fraction” value came out at 168% in the assay on WM3526, 112% with WM3619 and 362% with WM451Lu.

Values taken from the supplement of paper PMC4604168 (melanoma cell lines).
